Primary screen of a compound library

From ChEMBL document CHEMBL3988442, “University of Dundee, Small-Polar-MMV Screening Library” (2021).

Results are given as percent effect. The record does not define 0% and 100%; most values in the screen are far below 50% and negative numbers occur (in some assays of this library far below -100). This is an unselected part of the compounds tested. Two or more numbers in one place are separate tests of the same structure; such repeats can differ widely.

Mtb cholesterol medium: 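Phenotypic screen: M. tuberculosis growth, cholesterol and DPPC medium, 4 days; the read-out is not stated. Compounds at 50 µM. The record gives no direction; compounds that gave an IC50 in retests scored well above the rest, so higher reads as more growth inhibition. Size under these conditions: about 69,000 compounds, about 370 of them at 50% or above in at least one test.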
Mtb glucose medium: 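Whole-cell growth test on Mycobacterium tuberculosis, read after 3 days in glucose-containing 7H9 medium; the read-out is not stated. Concentration: 50 µM. The record gives no direction; compounds that gave an IC50 in retests scored well above the rest, so higher reads as more growth inhibition. Size under these conditions: about 69,000 compounds, about 760 of them at 50% or above in at least one test.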

* Cc1nc(CC(=O)N2CCCCC2c2ccn3ccnc3n2)cs1 (stereo not drawn) | Mtb cholesterol medium: -8.993%; Mtb glucose medium: -5.573%
* CCOCC(=O)N1CCC2(CC1)COC(COCc1ccccn1)C2.O=C(O)C(F)(F)F (stereo not drawn) | Mtb cholesterol medium: -3.049% and -8.18%; Mtb glucose medium: -12.89% and 2.283%
* Cl.Cn1nc(C2CCCN(Cc3ccccc3)C2)c2nccnc21 (stereo not drawn) | Mtb cholesterol medium: 12.2%; Mtb glucose medium: 9.949%
* N#Cc1ccccc1N1CCCN(C(=O)CCn2cccn2)CC1 | Mtb cholesterol medium: -19.1%; Mtb glucose medium: -11.43%
* CCS(=O)(=O)c1ccc(N2CCC(NC(=O)c3ccccn3)CC2)cc1 | Mtb cholesterol medium: -9.135%; Mtb glucose medium: -9.259%
* CCc1nc(CN(C(C)=O)C2CCN(CCc3cccs3)C2)no1 (stereo not drawn) | Mtb cholesterol medium: -0.8409%; Mtb glucose medium: 14.99%
* CC(C)CC(CCO)CNC(=O)N1CCCC1(C)C (stereo not drawn) | Mtb cholesterol medium: 0.07988%; Mtb glucose medium: 0.6368% and -1.894%
* COC(=O)C(O)C1CCN(CCc2ccncc2)CC1 (stereo not drawn) | Mtb cholesterol medium: -7.283%; Mtb glucose medium: 3.587% and 0.4329%
* C=C/C=c1\c(=C/C)oc2c(NCc3ccccc3)ncnc12 | Mtb cholesterol medium: 38.56%; Mtb glucose medium: 32.53%
* CN(C(=O)COc1ccc(F)cc1)[C@@H]1CS(=O)(=O)C[C@H]1O | Mtb cholesterol medium: -16.51%; Mtb glucose medium: -5.591% and -4.594%
* O=C1CC2(CCN(Cc3ccc(C(F)(F)F)nc3)CC2)CN1 | Mtb cholesterol medium: 0.01579% and -20.21%; Mtb glucose medium: -1.22% and -1.724%
* Cc1ccc(-c2nnc(C(C)N3CCn4c(C)nnc4C3)o2)cc1 (stereo not drawn) | Mtb cholesterol medium: -29.77%; Mtb glucose medium: -25.49%
* COCCCN1CC2(CCCCN2C(=O)COC)CC1=O (stereo not drawn) | Mtb cholesterol medium: 8.143%; Mtb glucose medium: -4.678% and 4.497%
* CCn1cc(C(=O)NC2CCN(S(C)(=O)=O)CC2)c2ccccc21 | Mtb cholesterol medium: 13.99%; Mtb glucose medium: 22.6%
* CS(=O)(=O)NCc1noc2c1CN(C(=O)C1CC1)CC2 | Mtb cholesterol medium: 5.86%; Mtb glucose medium: 19.75%
* CCC(Oc1ccc(N(C)S(C)(=O)=O)cc1)C(=O)N(C)C (stereo not drawn) | Mtb cholesterol medium: -11.02%; Mtb glucose medium: 8.155%
* Cc1nc(C)n(CC2CCCN(Cc3nnc(-c4ccco4)o3)C2)n1 (stereo not drawn) | Mtb cholesterol medium: 1.612%; Mtb glucose medium: 5.806% and -0.04956%
* NC(=O)COc1cccc(Cn2cccn2)c1 | Mtb cholesterol medium: -7.345%; Mtb glucose medium: -13.67%
* O=c1ccc2c([nH]1)CCC(NCc1ccncc1)C2 (stereo not drawn) | Mtb cholesterol medium: -23.04%; Mtb glucose medium: -21.94%
* O=C(CCc1ccco1)NCC1CCCN1c1cccnn1 (stereo not drawn) | Mtb cholesterol medium: 1.41% and -1.948%; Mtb glucose medium: 20.23%
* O=C(c1[nH]c2ccc(Cl)cc2c1Cl)N1CCC2(CC1)OCCO2 | Mtb cholesterol medium: 2.738%; Mtb glucose medium: 10.79%
* O=C(O)C(F)(F)F.[H][C@@]12CCN(Cc3ccc(C)s3)[C@]1([H])CC[C@H](C(=O)N1CCCO1)O2 | Mtb cholesterol medium: -21.12%; Mtb glucose medium: -1.564% and -3.063%
* CC1CCCN(Cc2ccc(CNC(=O)NCc3ccon3)cc2)C1 (stereo not drawn) | Mtb cholesterol medium: -12.67%; Mtb glucose medium: 3.607% and 2.958%
* COc1ccc(CN2C[C@@H](CN(C)CCO)[C@@H](CO)C2)cc1Cl | Mtb cholesterol medium: 4.012%; Mtb glucose medium: 8.738%
* CCc1nc(C)c(C2CC(=O)Nc3c2c(-c2ccccn2)nn3C)[nH]1 (stereo not drawn) | Mtb cholesterol medium: -33.22% and -1.371%; Mtb glucose medium: 0.3559% and -6.214%
* CNC(=O)c1c[nH]nc1C1CCCN1c1ncccn1 (stereo not drawn) | Mtb cholesterol medium: -2.555%; Mtb glucose medium: -8.195%
* CS(=O)(=O)Cc1cc(Cl)c2c(c1)OCCCO2 | Mtb cholesterol medium: 3.585% and 0.6924%; Mtb glucose medium: 0.7111%
* Cc1occc1C(=O)N1Cc2nccn2CC(CN(C)C)C1.O=C(O)C(F)(F)F (stereo not drawn) | Mtb cholesterol medium: -11.57% and -9.469%; Mtb glucose medium: -13.44%
* Cc1nc(-c2ccsc2)ccc1C(=O)N1CCn2c(C)nnc2C1 | Mtb cholesterol medium: 4.967%; Mtb glucose medium: -35.53%

The first 2 entries again:

Compound,Mtb cholesterol medium,Mtb glucose medium
Cc1nc(CC(=O)N2CCCCC2c2ccn3ccnc3n2)cs1 (stereo not drawn),-8.993,-5.573
CCOCC(=O)N1CCC2(CC1)COC(COCc1ccccn1)C2.O=C(O)C(F)(F)F (stereo not drawn),-3.049 and -8.18,-12.89 and 2.283